{
  "source": "the supplement of paper PMC8728848",
  "binders": {"B1": {"name": "PX9961KLbvu-535-38-535 (Bacteroides vulgatus) (protein)", "chain": "DKAYTDAESYTKGLHKIYSVWALSGQDGSSSSDISGLDAGNTALLRCWWTLQEQPTDEMKNAWNDAWCTEVNYMTWTTNKVEPIEGVYQRCMYIVALVNEFLKNIPNAPESIDKESYIAQARFNRAFAYYVLMDMFALPPFITEKNYSIEPAPLSREDLFNWIEAELNEIKPNLPSPRSEYGVADQAVASALLARMYLNAEIYTGKARYTECINACNEVIKAGYQLADNYADLFKADNGENPDTKKEIIYPIIFDGDKTQSWGMAAIIIGARGAEDKDVLLAHSGVDQGWAGFRATSNLVHLFDFQNDEEPKASEIQDKRGIFYDKGRSIDITSSVSGTFETEGWSVFKFSNLNSNGQPGKNTLWVDTDFPMFRLGDIYLMYAEAVARGGEGSKASAVEYINALRKRAYGDDKHNISENWLEENNFRNLLDERGRELYWEGIRRTDLVRFDLLTSGSYTWDFKGGINTGVGVNKRYNVYPIPVTDLTVNGNLQQNEGY"}},
  "experiment_in_all_cases": "glycan array binding signal (z-score within array); higher = stronger binding",
  "conditions_in_all_cases": "glycan notation: IUPAC condensed, linker removed",
  "key": {"[1]": {"target": "GalNAc(b1-4)GlcNAc(b1-2)Man", "in_short": "(§1)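 Columns mapping to the same glycan were averaged after glycan names were converted to IUPAC-condensed notation. The data come from 3228 arrays in the Consortium for Functional Glycomics database, limited to those with an available protein sequence. Binding is reported as a within-array Z-score averaged across arrays of one protein sequence and across linkers.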"}, "[2]": {"target": "GalNAc(b1-4)GlcNAc(b1-2)Man(a1-3)[GalNAc(b1-4)GlcNAc(b1-2)Man(a1-6)]Man(b1-4)GlcNAc(b1-4)GlcNAc", "in_short": "as §1"}, "[3]": {"target": "GalNAc(b1-4)GlcNAc(b1-3)GalNAc(b1-4)GlcNAc", "in_short": "as §1"}, "GalNAc(b1-4)GlcNAc6S": {"target": "GalNAc(b1-4)GlcNAc6S", "in_short": "as §1"}, "GalNAc(b1-6)GalNAc": {"target": "GalNAc(b1-6)GalNAc", "in_short": "as §1"}, "GalNAc3S(b1-4)GlcNAc": {"target": "GalNAc3S(b1-4)GlcNAc", "in_short": "as §1"}, "GalNAc3S(b1-4)GlcNAc3S": {"target": "GalNAc3S(b1-4)GlcNAc3S", "in_short": "as §1"}, "[4]": {"target": "GalNAc3S(b1-4)[Fuc(a1-3)]GlcNAc", "in_short": "as §1"}, "GalNAc4S6S(b1-4)GlcNAc": {"target": "GalNAc4S6S(b1-4)GlcNAc", "in_short": "as §1"}, "GalNAc6S(b1-4)GlcNAc": {"target": "GalNAc6S(b1-4)GlcNAc", "in_short": "as §1"}, "Glc(a1-4)Glc": {"target": "Glc(a1-4)Glc", "in_short": "as §1"}, "[5]": {"target": "Glc(a1-4)Glc(a1-4)Glc(a1-4)Glc", "in_short": "as §1"}, "Glc(a1-6)Glc(a1-6)Glc": {"target": "Glc(a1-6)Glc(a1-6)Glc", "in_short": "as §1"}, "[6]": {"target": "Glc(a1-6)Glc(a1-6)Glc(a1-6)Glc", "in_short": "as §1"}, "Glc(b1-4)Glc": {"target": "Glc(b1-4)Glc", "in_short": "as §1"}, "Glc(b1-6)Glc": {"target": "Glc(b1-6)Glc", "in_short": "as §1"}, "GlcA(b1-3)Gal": {"target": "GlcA(b1-3)Gal", "in_short": "as §1"}, "GlcA(b1-3)GlcNAc": {"target": "GlcA(b1-3)GlcNAc", "in_short": "as §1"}, "GlcA(b1-6)Gal": {"target": "GlcA(b1-6)Gal", "in_short": "as §1"}, "[7]": {"target": "GlcA3S(b1-3)Gal(b1-4)GlcNAc(b1-2)Man", "in_short": "as §1"}, "[8]": {"target": "GlcA3S(b1-3)Gal(b1-4)GlcNAc(b1-3)Gal(b1-4)Glc", "in_short": "as §1"}, "[9]": {"target": "GlcNAc(a1-3)Gal(b1-4)GlcNAc", "in_short": "as §1"}, "[10]": {"target": "GlcNAc(a1-4)Gal(b1-3)GlcNAc", "in_short": "as §1"}, "[11]": {"target": "GlcNAc(a1-4)Gal(b1-4)GalNAc", "in_short": "as §1"}, "[12]": {"target": "GlcNAc(a1-4)Gal(b1-4)GlcNAc", "in_short": "as §1"}, "[13]": {"target": "GlcNAc(a1-4)Gal(b1-4)GlcNAc(b1-3)Gal(b1-4)Glc", "in_short": "as §1"}, "[14]": {"target": "GlcNAc(a1-4)Gal(b1-4)GlcNAc(b1-3)Gal(b1-4)GlcNAc", "in_short": "as §1"}, "[15]": {"target": "GlcNAc(a1-4)Gal(b1-4)GlcNAc(b1-3)Gal(b1-4)GlcNAc(b1-3)Gal(b1-4)GlcNAc", "in_short": "as §1"}, "[16]": {"target": "GlcNAc(a1-4)Gal(b1-4)GlcNAc(b1-3)Gal(b1-4)[Fuc(a1-3)]GlcNAc(b1-3)Gal(b1-4)[Fuc(a1-3)]GlcNAc", "in_short": "as §1"}, "[17]": {"target": "GlcNAc(a1-6)Gal(b1-4)GlcNAc", "in_short": "as §1"}, "[18]": {"target": "GlcNAc(b1-2)Gal(b1-3)GalNAc", "in_short": "as §1"}, "[19]": {"target": "GlcNAc(b1-2)Man(a1-3)[GlcNAc(b1-2)Man(a1-6)]Man(b1-4)GlcNAc(b1-4)GlcNAc", "in_short": "as §1"}, "[20]": {"target": "GlcNAc(b1-2)Man(a1-3)[GlcNAc(b1-2)Man(a1-6)]Man(b1-4)GlcNAc(b1-4)[Fuc(a1-6)]GlcNAc", "in_short": "as §1"}, "[21]": {"target": "GlcNAc(b1-2)Man(a1-3)[GlcNAc(b1-4)][GlcNAc(b1-2)Man(a1-6)]Man(b1-4)GlcNAc(b1-4)GlcNAc", "in_short": "as §1"}, "[22]": {"target": "GlcNAc(b1-2)Man(a1-3)[GlcNAc(b1-4)][GlcNAc(b1-2)Man(a1-6)]Man(b1-4)GlcNAc(b1-4)[Fuc(a1-6)]GlcNAc", "in_short": "as §1"}, "[23]": {"target": "GlcNAc(b1-2)[GlcNAc(b1-4)]Man(a1-3)[GlcNAc(b1-2)Man(a1-6)]Man(b1-4)GlcNAc(b1-4)GlcNAc", "in_short": "as §1"}, "[24]": {"target": "GlcNAc(b1-2)[GlcNAc(b1-4)]Man(a1-3)[GlcNAc(b1-4)][GlcNAc(b1-2)Man(a1-6)]Man(b1-4)GlcNAc(b1-4)GlcNAc", "in_short": "as §1"}},
  "note": "The other results are listed elsewhere or left out.",
  "data": [
    {"binder": "B1", "values": [
      {"measurement": "glycan array binding signal (z-score)", "setting": "[1]", "result": -0.613},
      {"measurement": "glycan array binding signal (z-score)", "setting": "[2]", "result": 0.869},
      {"measurement": "glycan array binding signal (z-score)", "setting": "[3]", "result": -0.094},
      {"measurement": "glycan array binding signal (z-score)", "setting": "GalNAc(b1-4)GlcNAc6S", "result": 0.185},
      {"measurement": "glycan array binding signal (z-score)", "setting": "GalNAc(b1-6)GalNAc", "result": -0.533},
      {"measurement": "glycan array binding signal (z-score)", "setting": "GalNAc3S(b1-4)GlcNAc", "result": 0.715},
      {"measurement": "glycan array binding signal (z-score)", "setting": "GalNAc3S(b1-4)GlcNAc3S", "result": -0.352},
      {"measurement": "glycan array binding signal (z-score)", "setting": "[4]", "result": 0.247},
      {"measurement": "glycan array binding signal (z-score)", "setting": "GalNAc4S6S(b1-4)GlcNAc", "result": -0.411},
      {"measurement": "glycan array binding signal (z-score)", "setting": "GalNAc6S(b1-4)GlcNAc", "result": -0.871},
      {"measurement": "glycan array binding signal (z-score)", "setting": "Glc(a1-4)Glc", "result": 0.984},
      {"measurement": "glycan array binding signal (z-score)", "setting": "[5]", "result": -0.42},
      {"measurement": "glycan array binding signal (z-score)", "setting": "Glc(a1-6)Glc(a1-6)Glc", "result": -0.726},
      {"measurement": "glycan array binding signal (z-score)", "setting": "[6]", "result": 0.499},
      {"measurement": "glycan array binding signal (z-score)", "setting": "Glc(b1-4)Glc", "result": -0.497},
      {"measurement": "glycan array binding signal (z-score)", "setting": "Glc(b1-6)Glc", "result": 0.138},
      {"measurement": "glycan array binding signal (z-score)", "setting": "GlcA(b1-3)Gal", "result": -0.742},
      {"measurement": "glycan array binding signal (z-score)", "setting": "GlcA(b1-3)GlcNAc", "result": 0.124},
      {"measurement": "glycan array binding signal (z-score)", "setting": "GlcA(b1-6)Gal", "result": -0.072},
      {"measurement": "glycan array binding signal (z-score)", "setting": "[7]", "result": -0.203},
      {"measurement": "glycan array binding signal (z-score)", "setting": "[8]", "result": -0.814},
      {"measurement": "glycan array binding signal (z-score)", "setting": "[9]", "result": -0.731},
      {"measurement": "glycan array binding signal (z-score)", "setting": "[10]", "result": -0.768},
      {"measurement": "glycan array binding signal (z-score)", "setting": "[11]", "result": -0.092},
      {"measurement": "glycan array binding signal (z-score)", "setting": "[12]", "result": 0.084},
      {"measurement": "glycan array binding signal (z-score)", "setting": "[13]", "result": -0.257},
      {"measurement": "glycan array binding signal (z-score)", "setting": "[14]", "result": 0.221},
      {"measurement": "glycan array binding signal (z-score)", "setting": "[15]", "result": -0.034},
      {"measurement": "glycan array binding signal (z-score)", "setting": "[16]", "result": 0.673},
      {"measurement": "glycan array binding signal (z-score)", "setting": "[17]", "result": -0.543},
      {"measurement": "glycan array binding signal (z-score)", "setting": "[18]", "result": 0.183},
      {"measurement": "glycan array binding signal (z-score)", "setting": "[19]", "result": -0.632},
      {"measurement": "glycan array binding signal (z-score)", "setting": "[20]", "result": 0.278},
      {"measurement": "glycan array binding signal (z-score)", "setting": "[21]", "result": 0.119},
      {"measurement": "glycan array binding signal (z-score)", "setting": "[22]", "result": -0.856},
      {"measurement": "glycan array binding signal (z-score)", "setting": "[23]", "result": -0.164},
      {"measurement": "glycan array binding signal (z-score)", "setting": "[24]", "result": 1.4}
    ]}
  ]
}
